# Some of the results follow.
# Tests used:
# Experiment in all cases: glycan array binding signal (z-score within array); higher = stronger binding
# Conditions in all cases: glycan notation: IUPAC condensed, linker removed
# [1] = target: Gal(b1-4)GalNAc(b1-3)[Fuc(a1-2)]Gal(b1-4)GlcNAc
# In short: (§1)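 Glycan array binding is given as a within-array Z-score, which can be read as non-binding when negative. The arrays, 3228 of them, came from the Consortium for Functional Glycomics database and were retained only where the protein sequence was available. Z-scores were averaged across arrays of the same protein sequence at different concentrations or buffers and across linkers.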
# Gal(b1-4)Glc = target: Gal(b1-4)Glc
# In short: as §1
# Gal(b1-4)Glc6S = target: Gal(b1-4)Glc6S
# In short: as §1
# Gal(b1-4)GlcNAc = target: Gal(b1-4)GlcNAc
# In short: as §1
# [2] = target: Gal(b1-4)GlcNAc(a1-6)Gal(b1-4)GlcNAc
# In short: as §1
# Gal(b1-4)GlcNAc(b1-2)Man = target: Gal(b1-4)GlcNAc(b1-2)Man
# In short: as §1
# [3] = target: Gal(b1-4)GlcNAc(b1-2)Man(a1-3)Man(b1-4)GlcNAc(b1-4)GlcNAc
# In short: as §1
# [4] = target: Gal(b1-4)GlcNAc(b1-2)Man(a1-3)[Gal(b1-4)GlcNAc(b1-2)Man(a1-6)]Man(b1-4)GlcNAc(b1-4)GlcNAc
# In short: as §1
# [5] = target: Gal(b1-4)GlcNAc(b1-2)Man(a1-3)[Gal(b1-4)GlcNAc(b1-2)Man(a1-6)]Man(b1-4)GlcNAc(b1-4)[Fuc(a1-6)]GlcNAc
# In short: as §1
# [6] = target: Gal(b1-4)GlcNAc(b1-2)Man(a1-3)[Gal(b1-4)GlcNAc(b1-2)Man(a1-6)][Gal(b1-4)GlcNAc(b1-4)]Man(b1-4)GlcNAc(b1-4)[Fuc(a1-6)]GlcNAc
# In short: as §1
# [7] = target: Gal(b1-4)GlcNAc(b1-2)Man(a1-3)[Gal(b1-4)GlcNAc(b1-2)Man(a1-6)][GlcNAc(b1-4)]Man(b1-4)GlcNAc(b1-4)[Fuc(a1-6)]GlcNAc
# In short: as §1
# [8] = target: Gal(b1-4)GlcNAc(b1-2)Man(a1-3)[GlcNAc(b1-2)Man(a1-6)]Man(b1-4)GlcNAc(b1-4)GlcNAc
# In short: as §1
# [9] = target: Gal(b1-4)GlcNAc(b1-2)Man(a1-3)[GlcNAc(b1-4)][Gal(b1-4)GlcNAc(b1-2)Man(a1-6)]Man(b1-4)GlcNAc(b1-4)GlcNAc
# In short: as §1
# [10] = target: Gal(b1-4)GlcNAc(b1-2)Man(a1-3)[Man(a1-6)]Man(b1-4)GlcNAc(b1-4)GlcNAc
# In short: as §1
# [11] = target: Gal(b1-4)GlcNAc(b1-2)Man(a1-6)Man(b1-4)GlcNAc(b1-4)GlcNAc
# In short: as §1
# [12] = target: Gal(b1-4)GlcNAc(b1-2)Man(a1-6)[GlcNAc(b1-2)Man(a1-3)]Man(b1-4)GlcNAc(b1-4)GlcNAc
# In short: as §1
# [13] = target: Gal(b1-4)GlcNAc(b1-2)Man(a1-6)[Man(a1-3)]Man(b1-4)GlcNAc(b1-4)GlcNAc
# In short: as §1
# [14] = target: Gal(b1-4)GlcNAc(b1-2)[Gal(b1-4)GlcNAc(b1-4)]Man(a1-3)[Gal(b1-4)GlcNAc(b1-2)Man(a1-6)]Man(b1-4)GlcNAc(b1-4)GlcNAc
# In short: as §1
# [15] = target: Gal(b1-4)GlcNAc(b1-2)[Gal(b1-4)GlcNAc(b1-4)]Man(a1-3)[Gal(b1-4)GlcNAc(b1-2)[Gal(b1-4)GlcNAc(b1-6)]Man(a1-6)]Man(b1-4)GlcNAc(b1-4)GlcNAc
# In short: as §1
# [16] = target: Gal(b1-4)GlcNAc(b1-2)[Gal(b1-4)GlcNAc(b1-4)]Man(a1-3)[GlcNAc(b1-4)][Gal(b1-4)GlcNAc(b1-2)Man(a1-6)]Man(b1-4)GlcNAc(b1-4)GlcNAc
# In short: as §1
# [17] = target: Gal(b1-4)GlcNAc(b1-2)[Gal(b1-4)GlcNAc(b1-4)]Man(a1-3)[GlcNAc(b1-4)][Gal(b1-4)GlcNAc(b1-2)[Gal(b1-4)GlcNAc(b1-6)]Man(a1-6)]Man(b1-4)GlcNAc(b1-4)GlcNAc
# In short: as §1
# [18] = target: Gal(b1-4)GlcNAc(b1-2)[Gal(b1-4)GlcNAc(b1-6)]Man(a1-6)[Gal(b1-4)GlcNAc(b1-2)Man(a1-3)]Man(b1-4)GlcNAc(b1-4)GlcNAc
# In short: as §1
# [19] = target: Gal(b1-4)GlcNAc(b1-2)[Gal(b1-4)GlcNAc(b1-6)]Man(a1-6)[Gal(b1-4)GlcNAc(b1-2)Man(a1-3)]Man(b1-4)GlcNAc(b1-4)[Fuc(a1-6)]GlcNAc
# In short: as §1
# [20] = target: Gal(b1-4)GlcNAc(b1-2)[Gal(b1-4)GlcNAc(b1-6)]Man(a1-6)[GlcNAc(b1-4)][Gal(b1-4)GlcNAc(b1-2)Man(a1-3)]Man(b1-4)GlcNAc(b1-4)GlcNAc
# In short: as §1
# [21] = target: Gal(b1-4)GlcNAc(b1-2)[Gal(b1-4)GlcNAc(b1-6)]Man(a1-6)[GlcNAc(b1-4)][Gal(b1-4)GlcNAc(b1-2)[Gal(b1-4)GlcNAc(b1-4)]Man(a1-3)]Man(b1-4)GlcNAc(b1-4)[Fuc(a1-6)]GlcNAc
# In short: as §1
# [22] = target: Gal(b1-4)GlcNAc(b1-3)Gal(b1-3)GalNAc
# In short: as §1
# [23] = target: Gal(b1-4)GlcNAc(b1-3)Gal(b1-3)GlcNAc
# In short: as §1
# [24] = target: Gal(b1-4)GlcNAc(b1-3)Gal(b1-4)Glc
# In short: as §1
# [25] = target: Gal(b1-4)GlcNAc(b1-3)Gal(b1-4)GlcNAc
# In short: as §1
# [26] = target: Gal(b1-4)GlcNAc(b1-3)Gal(b1-4)GlcNAc(b1-2)Man(a1-3)[Gal(b1-4)GlcNAc(b1-3)Gal(b1-4)GlcNAc(b1-2)Man(a1-6)]Man(b1-4)GlcNAc(b1-4)GlcNAc
# In short: as §1
binder,measurement,setting,value
"CcfD (Bacteroides fragilis), Q5L9G4 (protein) MKKQNSIYTLLIALLCFVSSCDYLGVSDQLAGGLQNTEQVFDNVSYTKRWYANVFAGIPDYSGINSVNVGAFKNPWTGMCDELVVGYGNSSKYNNSDRNAANMGFHRYGDCYKYIRQANIFLQKAHPIMTTGTQGDQLLEDELTQMKANVRFMRAFYHYLLFEQYGPIILVKDKIYNATEDQDVPRNTVDEVIEYIDSELTAVASELTQEPIFEDKDYRAWPTKGVALAVRAKLWLYAASPLLNGGYREALSVTNPDGTRLFPDYDAGKWEKALAACKDFIDYAEAGRYELYKEYKDDNGAVIDPDKSVYNLFQKYTHEIIWATANNDWGGMNGDAFDRRIAPRCEKNGLGSTGVTQELVDAFYMKDGFPVSATAYLPQSTLYQEEGYGTYKDQNDNFSKKYTNVTVSNRYLNREPRFYNTVFFNGRQWPVSCNQVLFYNGGNSGVQEGQATLTGYMLFKRFNRSVSLTNPGVASQFRPSIIFRLADFYLMYAEAANEVNPNDARVLKYLNLVRERAGLPDIETLNPAIRGNQELQRAAIQRERQIELATEGQRYFDVRRWMIADKNGEGRQNGYVHGMNVRGESNDKEDFNRIVEASQIVFNRKMYLYPMPDSEMRKTKNLVQNPGW",glycan array binding signal (z-score),[1],-0.424
same,glycan array binding signal (z-score),Gal(b1-4)Glc,-0.056
same,glycan array binding signal (z-score),Gal(b1-4)Glc6S,-0.46
same,glycan array binding signal (z-score),Gal(b1-4)GlcNAc,-0.721
same,glycan array binding signal (z-score),[2],-0.108
same,glycan array binding signal (z-score),Gal(b1-4)GlcNAc(b1-2)Man,0.03
same,glycan array binding signal (z-score),[3],2.03
same,glycan array binding signal (z-score),[4],-0.424
same,glycan array binding signal (z-score),[5],-0.089
same,glycan array binding signal (z-score),[6],3.04
same,glycan array binding signal (z-score),[7],-0.995
same,glycan array binding signal (z-score),[8],-0.89
same,glycan array binding signal (z-score),[9],-0.384
same,glycan array binding signal (z-score),[10],-0.259
same,glycan array binding signal (z-score),[11],-1.05
same,glycan array binding signal (z-score),[12],1.38
same,glycan array binding signal (z-score),[13],-0.535
same,glycan array binding signal (z-score),[14],1.14
same,glycan array binding signal (z-score),[15],-0.673
same,glycan array binding signal (z-score),[16],-0.706
same,glycan array binding signal (z-score),[17],-0.43
same,glycan array binding signal (z-score),[18],-0.896
same,glycan array binding signal (z-score),[19],-0.818
same,glycan array binding signal (z-score),[20],-0.122
same,glycan array binding signal (z-score),[21],-0.594
same,glycan array binding signal (z-score),[22],-0.798
same,glycan array binding signal (z-score),[23],-1.23
same,glycan array binding signal (z-score),[24],0.627
same,glycan array binding signal (z-score),[25],-1.01
same,glycan array binding signal (z-score),[26],0.059

# 2 records picked at random from the list so far:
binder,measurement,setting,value
"CcfD (Bacteroides fragilis), Q5L9G4 (protein) MKKQNSIYTLLIALLCFVSSCDYLGVSDQLAGGLQNTEQVFDNVSYTKRWYANVFAGIPDYSGINSVNVGAFKNPWTGMCDELVVGYGNSSKYNNSDRNAANMGFHRYGDCYKYIRQANIFLQKAHPIMTTGTQGDQLLEDELTQMKANVRFMRAFYHYLLFEQYGPIILVKDKIYNATEDQDVPRNTVDEVIEYIDSELTAVASELTQEPIFEDKDYRAWPTKGVALAVRAKLWLYAASPLLNGGYREALSVTNPDGTRLFPDYDAGKWEKALAACKDFIDYAEAGRYELYKEYKDDNGAVIDPDKSVYNLFQKYTHEIIWATANNDWGGMNGDAFDRRIAPRCEKNGLGSTGVTQELVDAFYMKDGFPVSATAYLPQSTLYQEEGYGTYKDQNDNFSKKYTNVTVSNRYLNREPRFYNTVFFNGRQWPVSCNQVLFYNGGNSGVQEGQATLTGYMLFKRFNRSVSLTNPGVASQFRPSIIFRLADFYLMYAEAANEVNPNDARVLKYLNLVRERAGLPDIETLNPAIRGNQELQRAAIQRERQIELATEGQRYFDVRRWMIADKNGEGRQNGYVHGMNVRGESNDKEDFNRIVEASQIVFNRKMYLYPMPDSEMRKTKNLVQNPGW",glycan array binding signal (z-score),[18],-0.896
same,glycan array binding signal (z-score),[3],2.03

# Reference: the supplement of paper PMC8728848
